Not every entry of the source has a single result; some have several. The list is limited to them. An entry can have further records. Results that share an entry do not match, cause unknown; they may come from other doses, times, organisms or constructs than stated.
Molecular target: human CB1 receptor (Homo sapiens, UniProt P21554)
Assay: Inhibition of FSK-induced cAMP accumulation (Gαi/o, non-PTX treated), CAMYEL BRET biosensor, HEK-CB1 cells
Format: cell-based
Conditions: ratio of G s (+PTX) EC50 to G i (−PTX) EC50; three parameter fit

The chains behind the UniProt entries cited, without tags or fusion partners.
UniProt P21554, whole entry: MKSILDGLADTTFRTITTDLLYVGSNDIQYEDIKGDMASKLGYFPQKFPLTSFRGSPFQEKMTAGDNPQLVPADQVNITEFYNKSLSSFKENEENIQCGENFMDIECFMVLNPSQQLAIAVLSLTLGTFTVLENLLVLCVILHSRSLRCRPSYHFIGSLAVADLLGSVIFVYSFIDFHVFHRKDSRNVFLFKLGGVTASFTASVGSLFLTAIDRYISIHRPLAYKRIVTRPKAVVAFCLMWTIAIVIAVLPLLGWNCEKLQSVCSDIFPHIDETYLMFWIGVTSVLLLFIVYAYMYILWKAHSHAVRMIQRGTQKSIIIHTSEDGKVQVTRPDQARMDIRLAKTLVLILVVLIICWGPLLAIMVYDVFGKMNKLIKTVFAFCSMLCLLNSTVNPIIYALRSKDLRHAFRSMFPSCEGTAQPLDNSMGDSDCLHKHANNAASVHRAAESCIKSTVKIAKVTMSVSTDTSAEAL

CC(C)C(NC(=O)c1nn(Cc2ccc(F)cc2)c2ccccc12)C(N)=O (stereo not shown)
G i (−PTX) selectivity: roughly 300 and 290

Reference: paper PMC7043210, “Differential activation of G protein‐mediated signaling by synthetic cannabinoid receptor agonists” (Pharmacology Research & Perspectives, 2020)
